Reference: patent US20220144927A1 (SUMITOMO DAINIPPON PHARMA, published 2022)
Substitutions are numbered along the chain they refer to. No constants are given. Whether binding was seen depends on the method and setting. Some binding calls cover weakened binding; strength is not graded here. One block for each binder: values may come before it.

The chains behind the UniProt entries cited, without tags or fusion partners. Residues count along the entry.
UniProt P98088, residues 28-5654: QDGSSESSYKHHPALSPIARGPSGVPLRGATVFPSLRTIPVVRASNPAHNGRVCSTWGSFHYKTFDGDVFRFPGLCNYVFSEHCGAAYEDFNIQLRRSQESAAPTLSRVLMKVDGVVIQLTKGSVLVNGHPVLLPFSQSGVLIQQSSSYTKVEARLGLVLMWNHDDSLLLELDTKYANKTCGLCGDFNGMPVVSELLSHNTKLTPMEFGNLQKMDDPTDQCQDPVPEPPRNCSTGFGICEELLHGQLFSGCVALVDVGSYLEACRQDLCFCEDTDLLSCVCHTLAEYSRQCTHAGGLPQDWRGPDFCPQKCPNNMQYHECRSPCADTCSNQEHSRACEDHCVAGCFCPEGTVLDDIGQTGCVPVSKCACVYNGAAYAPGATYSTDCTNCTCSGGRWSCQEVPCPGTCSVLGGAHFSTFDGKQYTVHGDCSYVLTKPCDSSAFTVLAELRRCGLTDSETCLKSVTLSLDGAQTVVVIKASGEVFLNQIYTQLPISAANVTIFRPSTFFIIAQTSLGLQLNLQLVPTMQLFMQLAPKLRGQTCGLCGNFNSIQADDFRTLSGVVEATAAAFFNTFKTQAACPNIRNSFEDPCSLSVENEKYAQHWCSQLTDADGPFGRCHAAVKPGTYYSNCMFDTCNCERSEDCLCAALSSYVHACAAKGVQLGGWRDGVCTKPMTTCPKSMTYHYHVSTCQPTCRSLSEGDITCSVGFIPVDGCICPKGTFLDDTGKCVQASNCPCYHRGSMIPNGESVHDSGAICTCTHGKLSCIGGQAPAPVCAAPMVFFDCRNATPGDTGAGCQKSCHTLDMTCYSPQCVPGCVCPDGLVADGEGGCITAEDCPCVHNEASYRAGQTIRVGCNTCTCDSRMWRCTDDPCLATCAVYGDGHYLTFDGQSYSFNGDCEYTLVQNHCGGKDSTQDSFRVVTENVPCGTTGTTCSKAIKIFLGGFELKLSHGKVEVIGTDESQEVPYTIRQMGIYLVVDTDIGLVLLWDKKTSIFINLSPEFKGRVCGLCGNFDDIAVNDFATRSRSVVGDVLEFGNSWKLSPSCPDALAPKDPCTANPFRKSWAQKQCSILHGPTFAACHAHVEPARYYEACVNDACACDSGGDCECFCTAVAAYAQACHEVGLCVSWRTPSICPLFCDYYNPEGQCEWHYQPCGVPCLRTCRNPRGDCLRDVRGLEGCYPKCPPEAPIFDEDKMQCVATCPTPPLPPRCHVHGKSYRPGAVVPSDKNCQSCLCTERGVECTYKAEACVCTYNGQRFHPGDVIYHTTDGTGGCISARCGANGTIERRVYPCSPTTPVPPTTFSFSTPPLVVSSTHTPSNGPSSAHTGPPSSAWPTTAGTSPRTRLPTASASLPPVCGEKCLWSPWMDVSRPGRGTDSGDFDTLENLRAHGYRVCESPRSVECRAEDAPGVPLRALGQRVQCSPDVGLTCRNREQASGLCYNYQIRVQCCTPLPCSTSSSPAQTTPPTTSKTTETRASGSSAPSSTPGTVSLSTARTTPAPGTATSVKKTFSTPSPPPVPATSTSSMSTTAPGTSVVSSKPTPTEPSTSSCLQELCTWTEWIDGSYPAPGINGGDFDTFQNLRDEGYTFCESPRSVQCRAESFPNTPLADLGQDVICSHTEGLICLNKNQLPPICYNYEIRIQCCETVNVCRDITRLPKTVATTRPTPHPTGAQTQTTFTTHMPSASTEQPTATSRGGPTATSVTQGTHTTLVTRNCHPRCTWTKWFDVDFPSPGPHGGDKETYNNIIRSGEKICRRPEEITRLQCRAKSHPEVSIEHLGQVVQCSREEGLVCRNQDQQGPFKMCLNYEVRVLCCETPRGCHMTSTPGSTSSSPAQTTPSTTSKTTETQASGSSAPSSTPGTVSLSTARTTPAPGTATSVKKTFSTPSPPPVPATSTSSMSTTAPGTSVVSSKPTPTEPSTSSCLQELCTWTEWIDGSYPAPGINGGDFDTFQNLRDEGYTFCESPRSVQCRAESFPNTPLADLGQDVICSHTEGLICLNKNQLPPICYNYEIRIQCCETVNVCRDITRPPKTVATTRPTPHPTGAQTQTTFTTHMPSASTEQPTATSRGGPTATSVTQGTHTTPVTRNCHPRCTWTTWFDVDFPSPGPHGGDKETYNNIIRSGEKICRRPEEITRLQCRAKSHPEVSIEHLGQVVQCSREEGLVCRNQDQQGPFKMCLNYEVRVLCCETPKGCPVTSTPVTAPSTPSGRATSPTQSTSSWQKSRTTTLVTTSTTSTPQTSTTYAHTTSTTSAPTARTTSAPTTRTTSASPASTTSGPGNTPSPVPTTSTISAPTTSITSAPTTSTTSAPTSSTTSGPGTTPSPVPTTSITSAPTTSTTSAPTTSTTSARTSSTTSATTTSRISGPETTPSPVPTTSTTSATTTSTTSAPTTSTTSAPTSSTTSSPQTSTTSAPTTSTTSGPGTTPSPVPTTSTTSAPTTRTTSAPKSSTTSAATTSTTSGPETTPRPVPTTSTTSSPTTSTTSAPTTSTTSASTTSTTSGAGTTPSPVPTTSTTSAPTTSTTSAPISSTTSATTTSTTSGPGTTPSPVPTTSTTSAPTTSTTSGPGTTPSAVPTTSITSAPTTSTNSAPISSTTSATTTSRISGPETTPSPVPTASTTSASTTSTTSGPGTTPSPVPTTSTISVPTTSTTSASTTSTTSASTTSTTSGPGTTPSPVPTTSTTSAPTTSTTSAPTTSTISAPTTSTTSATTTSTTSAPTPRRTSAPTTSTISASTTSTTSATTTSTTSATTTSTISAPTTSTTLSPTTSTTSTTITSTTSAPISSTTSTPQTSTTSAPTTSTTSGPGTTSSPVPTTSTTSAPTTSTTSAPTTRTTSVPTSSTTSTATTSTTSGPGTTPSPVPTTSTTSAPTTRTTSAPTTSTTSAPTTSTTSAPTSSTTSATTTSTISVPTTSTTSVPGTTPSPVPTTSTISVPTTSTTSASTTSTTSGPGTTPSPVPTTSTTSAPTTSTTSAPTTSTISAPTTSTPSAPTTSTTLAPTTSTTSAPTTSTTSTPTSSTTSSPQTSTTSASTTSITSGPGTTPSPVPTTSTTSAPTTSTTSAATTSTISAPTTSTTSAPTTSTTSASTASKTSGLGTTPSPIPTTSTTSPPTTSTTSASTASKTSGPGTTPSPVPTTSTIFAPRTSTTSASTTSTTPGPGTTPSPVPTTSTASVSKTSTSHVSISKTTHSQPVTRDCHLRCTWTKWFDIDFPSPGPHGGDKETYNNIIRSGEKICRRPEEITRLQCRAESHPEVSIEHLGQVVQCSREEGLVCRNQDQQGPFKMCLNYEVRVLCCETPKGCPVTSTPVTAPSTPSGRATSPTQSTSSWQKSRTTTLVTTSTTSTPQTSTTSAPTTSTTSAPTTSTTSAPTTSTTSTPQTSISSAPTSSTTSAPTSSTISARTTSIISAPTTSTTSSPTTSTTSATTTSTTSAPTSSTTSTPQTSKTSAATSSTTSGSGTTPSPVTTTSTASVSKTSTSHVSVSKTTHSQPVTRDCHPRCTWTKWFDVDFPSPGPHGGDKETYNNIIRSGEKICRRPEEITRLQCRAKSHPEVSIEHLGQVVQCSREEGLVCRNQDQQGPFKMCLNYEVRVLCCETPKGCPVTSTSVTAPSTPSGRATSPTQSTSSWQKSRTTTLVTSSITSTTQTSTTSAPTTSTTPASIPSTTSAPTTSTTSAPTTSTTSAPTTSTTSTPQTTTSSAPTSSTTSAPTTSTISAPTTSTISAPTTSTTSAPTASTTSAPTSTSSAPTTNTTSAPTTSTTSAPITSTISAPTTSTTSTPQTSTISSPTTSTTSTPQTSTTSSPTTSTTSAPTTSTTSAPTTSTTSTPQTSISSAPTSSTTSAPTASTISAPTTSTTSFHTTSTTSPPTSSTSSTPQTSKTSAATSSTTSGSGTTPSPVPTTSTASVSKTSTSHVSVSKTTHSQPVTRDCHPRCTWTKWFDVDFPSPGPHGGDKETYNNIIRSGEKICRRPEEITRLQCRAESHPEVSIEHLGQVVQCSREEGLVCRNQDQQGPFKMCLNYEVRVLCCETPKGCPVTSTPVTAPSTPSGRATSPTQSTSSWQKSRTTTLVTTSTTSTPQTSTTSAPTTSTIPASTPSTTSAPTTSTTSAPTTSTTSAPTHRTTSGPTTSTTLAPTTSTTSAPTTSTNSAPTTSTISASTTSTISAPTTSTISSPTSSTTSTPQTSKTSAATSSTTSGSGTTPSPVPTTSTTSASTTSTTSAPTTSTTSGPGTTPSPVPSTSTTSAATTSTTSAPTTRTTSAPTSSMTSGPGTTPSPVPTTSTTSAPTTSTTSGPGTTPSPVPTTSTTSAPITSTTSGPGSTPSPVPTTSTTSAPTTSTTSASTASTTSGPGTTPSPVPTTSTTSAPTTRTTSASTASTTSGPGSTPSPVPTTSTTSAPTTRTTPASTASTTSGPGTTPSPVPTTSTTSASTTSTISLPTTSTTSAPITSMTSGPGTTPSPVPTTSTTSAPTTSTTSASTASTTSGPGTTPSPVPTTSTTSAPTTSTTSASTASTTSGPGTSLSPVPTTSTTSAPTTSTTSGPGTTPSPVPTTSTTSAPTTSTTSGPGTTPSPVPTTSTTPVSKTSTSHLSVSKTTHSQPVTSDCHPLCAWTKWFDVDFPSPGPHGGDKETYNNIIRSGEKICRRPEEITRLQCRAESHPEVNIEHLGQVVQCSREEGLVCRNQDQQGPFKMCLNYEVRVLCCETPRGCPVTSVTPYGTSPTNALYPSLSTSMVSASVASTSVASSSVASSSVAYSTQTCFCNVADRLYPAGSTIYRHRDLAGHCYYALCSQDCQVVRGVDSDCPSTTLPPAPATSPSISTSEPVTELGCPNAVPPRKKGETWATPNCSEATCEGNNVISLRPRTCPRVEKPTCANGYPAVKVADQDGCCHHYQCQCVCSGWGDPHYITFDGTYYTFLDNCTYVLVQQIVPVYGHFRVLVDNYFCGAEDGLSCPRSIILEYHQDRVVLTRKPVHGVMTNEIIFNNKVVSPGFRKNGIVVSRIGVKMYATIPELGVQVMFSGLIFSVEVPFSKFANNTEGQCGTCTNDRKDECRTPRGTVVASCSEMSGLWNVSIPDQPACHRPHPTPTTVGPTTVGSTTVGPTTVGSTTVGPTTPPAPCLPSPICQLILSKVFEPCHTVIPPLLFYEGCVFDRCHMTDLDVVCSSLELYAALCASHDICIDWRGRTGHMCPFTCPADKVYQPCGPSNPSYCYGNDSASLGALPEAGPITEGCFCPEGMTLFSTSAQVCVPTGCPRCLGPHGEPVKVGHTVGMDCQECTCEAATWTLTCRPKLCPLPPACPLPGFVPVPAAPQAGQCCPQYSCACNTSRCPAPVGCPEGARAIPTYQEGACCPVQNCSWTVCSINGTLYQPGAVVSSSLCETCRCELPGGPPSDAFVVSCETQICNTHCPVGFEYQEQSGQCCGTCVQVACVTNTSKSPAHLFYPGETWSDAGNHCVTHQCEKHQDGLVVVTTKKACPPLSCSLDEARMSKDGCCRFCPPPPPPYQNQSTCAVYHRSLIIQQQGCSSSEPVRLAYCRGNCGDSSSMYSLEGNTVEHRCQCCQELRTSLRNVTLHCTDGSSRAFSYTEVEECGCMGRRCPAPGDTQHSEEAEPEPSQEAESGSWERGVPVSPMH

Target: T1, mucin subtype 5AC (human, UniProt P98088 28-5654, limits assumed)
T1 construct: Not a purified recombinant protein; also called MUC5AC; crude extract antigen solution
Assay: ELISA on SW1990 tumor antigen preparations

B1: antibody 1 (antibody, V domains shown)
VH: EVQLLESGGGLVQPGGSLRLSCAASGFTFSNYGMSWVRQAPGKGLEWVSTISNSGRYTYFPDSVKGRFTISRDNSKNTLYLQMNSLRAEDTALYYCTRHLDYANYDAMDYWGQGTLVTVSS
VL: DIVMTQSPSSLSASVGDRVTITCRASKSVTTSDFSYMHWYQQKPGKAPKLLIYLASNLESGVPSRFSGSGSGTDFTLTISSLQPEDFATYYCQHSREFPWTFGGGTKVEIK
notes: Humanized antibody of the invention; also called H01L01
binding: binds

B2: antibody 4 (antibody, V domains shown)
VH: B1 VH
VL: DIVMTQSPDSLAVSLGERATINCKASKSVTTSDFSYLHWYQQKPGQPPKLLIYLASNLESGVPDRFSGSGSGTDFTLTISSLQAEDVAVYYCQHSREFPWTFGGGTKLEIK
notes: Humanized antibody of the invention; also called H01L04
binding: binds

B6: antibody 9 (antibody, V domains shown)
VH: B1 VH with E1L, L5V, L11V, G16R, S49A, L93V
VL: B1 VL
notes: Humanized antibody of the invention; also called H03L01
binding: binds

B7: antibody 12 (antibody, V domains shown)
VH: B1 VH with E1L, L5V, L11V, G16R, S49A, L93V
VL: B2 VL
notes: Humanized antibody of the invention; also called H03L04
binding: binds

B9: antibody 15 (antibody, V domains shown)
VH: B1 VH with A24V, K76R, S85T, L93V, L116P
VL: B1 VL with V3Q, A47S, T76S
notes: Humanized antibody of the invention; also called H04L03
binding: binds

B15: antibody 8 (antibody, V domains shown)
VH: B1 VH with E1L, L5V, L11V, Q13R, V37I, S75A, T78S
VL: B2 VL
notes: Humanized antibody of the invention; also called H02L04
binding: binds

B16: antibody 7 (antibody, V domains shown)
VH: B1 VH with E1L, L5V, L11V, Q13R, V37I, S75A, T78S
VL: B1 VL with V3Q, A47S, T76S
notes: Humanized antibody of the invention; also called H02L03
binding: binds

The next lines start with the values.

binding: binds
B3: antibody 10 (antibody, V domains shown)
VH: B1 VH with E1L, L5V, L11V, G16R, S49A, L93V
VL: B1 VL with I2V, S10T, K46Q, G104Q, V108L
notes: Humanized antibody of the invention; also called H03L02

binding: binds
B4: antibody 5 (antibody, V domains shown)
VH: B1 VH with E1L, L5V, L11V, Q13R, V37I, S75A, T78S
VL: B1 VL
notes: Humanized antibody of the invention; also called H02L01

binding: binds
B5: antibody 11 (antibody, V domains shown)
VH: B1 VH with E1L, L5V, L11V, G16R, S49A, L93V
VL: B1 VL with V3Q, A47S, T76S
notes: Humanized antibody of the invention; also called H03L03

binding: binds
B8: antibody 13 (antibody, V domains shown)
VH: B1 VH with A24V, K76R, S85T, L93V, L116P
VL: B1 VL
notes: Humanized antibody of the invention; also called H04L01

binding: binds
B10: antibody 6 (antibody, V domains shown)
VH: B1 VH with E1L, L5V, L11V, Q13R, V37I, S75A, T78S
VL: B1 VL with I2V, S10T, K46Q, G104Q, V108L
notes: Humanized antibody of the invention; also called H02L02

binding: binds
B11: antibody 3 (antibody, V domains shown)
VH: B1 VH
VL: B1 VL with V3Q, A47S, T76S
notes: Humanized antibody of the invention; also called H01L03

binding: binds
B12: antibody 16 (antibody, V domains shown)
VH: B1 VH with A24V, K76R, S85T, L93V, L116P
VL: B2 VL
notes: Humanized antibody of the invention; also called H04L04

binding: binds
B13: antibody 2 (antibody, V domains shown)
VH: B1 VH
VL: B1 VL with I2V, S10T, K46Q, G104Q, V108L
notes: Humanized antibody of the invention; also called H01L02

binding: binds
B14: antibody 14 (antibody, V domains shown)
VH: B1 VH with A24V, K76R, S85T, L93V, L116P
VL: B1 VL with I2V, S10T, K46Q, G104Q, V108L
notes: Humanized antibody of the invention; also called H04L02
